Results are given in words; binding and its absence hold for the method and conditions named.
Target: uncleaved human ZP2 N-terminal region hZP2-N1N2N3 (human) (UniProt Q05996)
Experiment: SEC-MALS

The chains behind the UniProt entries cited, without tags or fusion partners. Residues count along the entry.
UniProt Q05996, residues 39-365: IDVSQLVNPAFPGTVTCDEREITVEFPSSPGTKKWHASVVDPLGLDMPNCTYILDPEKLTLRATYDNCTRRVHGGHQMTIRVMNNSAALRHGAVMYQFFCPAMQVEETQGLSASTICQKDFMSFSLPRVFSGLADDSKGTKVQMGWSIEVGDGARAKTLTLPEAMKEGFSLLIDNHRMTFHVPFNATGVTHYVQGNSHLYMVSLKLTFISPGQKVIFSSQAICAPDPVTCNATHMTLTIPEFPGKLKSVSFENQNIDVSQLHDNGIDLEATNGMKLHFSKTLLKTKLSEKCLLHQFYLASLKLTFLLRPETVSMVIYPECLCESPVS

- binding: no binding
Substance: uncleaved human ZP2 N-terminal region hZP2-N1N2N3 (from UniProt Q05996 39-365) (domain or fragment)

From paper doi:10.1101/2023.06.21.544075
